Reference: PMC10061497
These are yes or no findings as the source states them, for the method shown. Binding seen in cells or lysates may run through a third protein. Binding can be weak; no strength is given. Where a sequence is shown, tags or fusion partners need not be part of it.

The chains behind the UniProt entries cited, without tags or fusion partners. Where a name states a change or a piece, a line headed by the entry shows the natural chain unless it says otherwise.
UniProt Q38F23: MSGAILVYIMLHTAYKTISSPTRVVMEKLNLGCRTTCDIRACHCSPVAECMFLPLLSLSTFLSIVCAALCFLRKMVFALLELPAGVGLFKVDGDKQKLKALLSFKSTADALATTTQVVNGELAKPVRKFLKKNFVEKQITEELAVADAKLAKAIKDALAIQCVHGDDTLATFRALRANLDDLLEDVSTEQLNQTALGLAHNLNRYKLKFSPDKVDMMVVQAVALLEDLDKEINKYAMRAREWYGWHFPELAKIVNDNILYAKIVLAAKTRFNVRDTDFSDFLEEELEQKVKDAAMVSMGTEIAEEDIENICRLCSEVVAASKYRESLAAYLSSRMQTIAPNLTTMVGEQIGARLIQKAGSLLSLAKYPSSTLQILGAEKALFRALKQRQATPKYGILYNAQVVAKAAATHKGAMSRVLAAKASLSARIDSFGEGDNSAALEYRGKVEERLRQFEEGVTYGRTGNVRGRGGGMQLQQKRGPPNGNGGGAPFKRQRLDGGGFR

Molecular target: T1, T. brucei telomerase reverse transcriptase (TbTERT), FLAG-HA-HA tagged (Trypanosoma brucei) (UniProt Q383R0)
T1 sequence: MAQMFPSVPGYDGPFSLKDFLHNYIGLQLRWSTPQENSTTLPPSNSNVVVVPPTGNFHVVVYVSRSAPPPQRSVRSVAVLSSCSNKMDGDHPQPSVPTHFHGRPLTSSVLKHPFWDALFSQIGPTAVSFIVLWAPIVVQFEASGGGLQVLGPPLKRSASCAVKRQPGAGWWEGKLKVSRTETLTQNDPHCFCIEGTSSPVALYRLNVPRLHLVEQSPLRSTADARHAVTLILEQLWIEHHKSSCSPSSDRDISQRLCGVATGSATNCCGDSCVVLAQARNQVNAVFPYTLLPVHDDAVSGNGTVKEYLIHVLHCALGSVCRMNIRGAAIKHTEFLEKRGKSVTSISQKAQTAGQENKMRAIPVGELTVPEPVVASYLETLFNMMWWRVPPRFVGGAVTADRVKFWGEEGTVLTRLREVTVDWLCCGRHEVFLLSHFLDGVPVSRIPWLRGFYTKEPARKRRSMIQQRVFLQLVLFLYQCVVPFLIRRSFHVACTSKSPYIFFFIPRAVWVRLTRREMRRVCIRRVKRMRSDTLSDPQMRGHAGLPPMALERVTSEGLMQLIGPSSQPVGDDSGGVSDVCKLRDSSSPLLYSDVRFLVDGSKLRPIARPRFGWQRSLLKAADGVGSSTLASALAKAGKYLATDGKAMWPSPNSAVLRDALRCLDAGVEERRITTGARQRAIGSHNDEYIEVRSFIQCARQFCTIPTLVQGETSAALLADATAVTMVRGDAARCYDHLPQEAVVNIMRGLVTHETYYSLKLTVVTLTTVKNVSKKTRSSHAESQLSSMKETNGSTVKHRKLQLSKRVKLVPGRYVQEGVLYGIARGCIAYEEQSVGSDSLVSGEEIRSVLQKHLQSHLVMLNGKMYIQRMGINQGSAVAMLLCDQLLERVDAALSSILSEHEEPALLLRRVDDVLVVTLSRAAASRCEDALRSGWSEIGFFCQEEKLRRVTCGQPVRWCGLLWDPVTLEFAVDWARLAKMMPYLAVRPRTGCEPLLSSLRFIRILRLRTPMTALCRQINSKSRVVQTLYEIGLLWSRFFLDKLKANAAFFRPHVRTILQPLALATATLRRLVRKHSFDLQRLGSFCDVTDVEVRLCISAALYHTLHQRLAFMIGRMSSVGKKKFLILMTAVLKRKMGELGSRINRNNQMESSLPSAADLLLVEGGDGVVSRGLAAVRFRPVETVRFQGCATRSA
Test: co-IP; WT BF T. brucei cell lysate; IP antibody anti-TbTERT C terminus; western blot with anti-FLAG and anti-NOP58

- binding: binds
Substance: Nucleolar protein 58 (NOP58) (from UniProt Q38F23)
